No signal at the amounts used counts as a negative.
Target: TNF-alpha (Homo sapiens) (UniProt P01375)
Experiment: flow cytometry
Conditions: 5'-amino, coupled to magnetic particles; in 10% human serum binding virtually disappeared, no meaningful KD; purified recombinant protein; protein details: biotinylated, R&D Systems; single-stranded DNA

By UniProt entry, the sequences of proteins in these tests, tags left out. Residues count along the entry.
UniProt P01375, 77-233: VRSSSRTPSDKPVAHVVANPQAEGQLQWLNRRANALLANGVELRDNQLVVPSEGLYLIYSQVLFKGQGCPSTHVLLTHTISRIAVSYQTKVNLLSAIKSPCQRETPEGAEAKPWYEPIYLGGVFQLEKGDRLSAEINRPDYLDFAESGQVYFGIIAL

Sequence: ATCCAGAGTGACGCAGCAGGTTAAGGTGTAGGTCCGGGTGGGGGGGTGGGTTGGGGGACTGGTGGACACGGTGGCTTAGT [B01]
- binding result: no binding
